Reference: patent US12629341B2 (priority 2019, dated 2026)

Conditions: nanodiscs formed with 3 equivalents of MA-SMA

Question: Which “estimated subunit number of daptomycin oligomer” value does the source give for `CCCCCCCCCC(=O)N[C@@H](Cc1c[nH]c2ccccc12)C(=O)N[C@H](CC(N)=O)C(=O)N[C@@H](CC(=O)O)C(=O)N[C@@H]1C(=O)NCC(=O)N[C@@H](CCCN)C(=O)N[C@@H](CC(=O)O)C(=O)N[C@H](C)C(=O)N[C@@H](CC(=O)O)C(=O)NCC(=O)N[C@H](CO)C(=O)N[C@@H]([C@H](C)CC(=O)O)C(=O)N[C@@H](CC(=O)c2ccccc2N)C(=O)O[C@@H]1C` [daptomycin] here?
Answer: 7.4±0.33
